In all, about 200,000 compounds went through this assay and about 25 (0.01%) were called active. The inconclusive results got no clear call from the source; some entries with a clear call stand among them for comparison. Calls follow the shape of the dose curve; as a rule, active = well fitted inhibition curve with a large enough effect in the signal ratio, with a control signal flat (not every such curve was filed as active); inconclusive = small, poorly fitted or top-dose-only effect, or effect the other way, or a change in a side signal; inactive = flat fitted curve, though single readings scatter; the % refers to the signal ratio. Potencies beside an inconclusive call are fits to weak or partial responses and may not hold up.
experiment: qHTS Assay for Modulators of Lamin A Splicing; details: HeLa LMNA splicing GFP/RFP minigene ratio, 48 h; ratio change, negative = inhibition: at 46.1 µM (top of the series) unless noted
Procedure, shortened: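 S3 HeLa cells stably expressing lamin A-EGFP splicing minigene plus DsRed2, 600 cells/well, 48 h compound exposure at 37C. Laser-scanning cytometry; analysed as GFP (500-530 nm)/RFP (575-640 nm) total intensity ratio; 0.5% DMSO vehicle.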
% is scaled to controls: 0 for no effect and ±100 for the full control effect; potency is read from the fitted curve at half-maximal effect.

| SMILES | ratio change, negative = inhibition | Potency |
| --- | --- | --- |
| Cn1c(=O)c2c(nc(CN3CCN(CCO)CC3)n2Cc2cccc3ccccc23)n(C)c1=O | inconclusive: -33% | – |
| COc1ccccc1NC(=O)C1=C(C)Nc2nc3ccccc3n2C1c1cccs1 (stereo not drawn) | – | inconclusive: 3.98 µM [fluorescent, full curve, poor fit] |
| COc1ccc(OCC(O)CN2CCN(Cc3ccc4c(c3)OCO4)CC2)cc1 (stereo not drawn) | inconclusive: 9.74% | – |
| COC(=O)c1ccc(C(=O)N(CCN(C)C)c2nc3c(Cl)cccc3s2)cc1 | inconclusive: 18.9% [at 9.22 µM] | – |
| CNS(=O)(=O)c1c(C)cc(C)c(N(C)S(=O)(=O)c2ccccc2)c1C | inactive: 11.9% [at 46 µM] | – |
| COc1ccc(N2CCN(S(=O)(=O)c3ccc4c(c3)CC(C)N4C(C)=O)CC2)cc1 (stereo not drawn) | inconclusive: 3.99% [at 46 µM] | – |
| O=C1c2ccccc2C(O)(Cc2ccccc2)N1CCCN1CCOCC1 (stereo not drawn) | inactive: -0.582% | – |
| Cc1ccn2c(C(=O)CSc3ccc(Cl)cc3)c(C)nc2c1 | – | inconclusive: 35.5 µM [falling, single point] |
| CCC/C(=N\NC(=O)c1ccc(CSc2nncn2C)cc1)c1ccccc1 | inconclusive: 16.6% | – |
| COc1ccc(NC(=O)C2Cc3ccccc3N2C(=O)c2ccccc2)c(OC)c1 (stereo not drawn) | inconclusive: 6.45% [at 46 µM] | – |
| CCCNc1nc(NCC)nc(OC)n1 | inactive: 6.21% | – |
| Cc1cccc(N(CC(=O)O)CC(=O)O)c1 | inactive: -15.9% | – |
| O=C(Nc1ccc(Br)cc1F)c1cc(S(=O)(=O)NCc2ccc(F)cc2)ccc1F | inactive: -4.82% [at 46 µM] | – |
| Cc1cc(C(=O)N/N=C/c2cccnc2)cs1 | inactive: -3.26% | – |
| COc1ccc(-c2noc(CCC(=O)NC3CCCCC3)n2)cc1OC | inactive: 7.32% | – |
| Cn1c(N)c(C(=O)COC(=O)/C=C/c2ccc(OC(F)F)cc2)c(=O)n(C)c1=O | inconclusive: 13.2% [at 46 µM] | – |
| CNc1nc(-c2ccccc2OC)nc2ccccc12 | – | inconclusive: 12.6 µM [inhibitor, partial curve, poor fit] |
| CC(C)C(=O)N1CCN(c2nc(-c3ccccc3)c3c(c2C#N)CCCC3)CC1 | inconclusive: 8.73% | – |
| COCCN1C=C(C(=O)OC)C(c2ccccc2C(F)(F)F)C(C(=O)OC)=C1 | inactive: 3.46% | – |
| Cc1cc(N2CCCC(C(=O)Nc3ccc4c(c3)CCC4)C2)n2ncnc2n1 (stereo not drawn) | inconclusive: -24.6% | – |
| CCN1C(=O)c2ccccc2Sc2ccc(NC(C)=O)cc21 | – | inconclusive: 1.41 µM [inhibitor, full curve] |

| SMILES | ratio change, negative = inhibition | Potency |
| --- | --- | --- |
| COc1cc(C(=O)Nc2cc(C)ccc2OCc2cc(=O)n3c(C)csc3n2)cc(OC)c1OC | inconclusive: -5.93% [at 46 µM] | – |
| CSCCC(=O)N1CCCC(CNC(=O)c2ccc(-c3ccccc3)cc2)C1 (stereo not drawn) | inconclusive: 3.38% [at 46 µM] | – |
| Cc1ccc2oc(-c3ccccc3C(=O)O)cc(=O)c2c1 | inactive: -5.27% | – |
| O=C(COc1ccccc1)Nc1ccccc1NS(=O)(=O)c1cccs1 | inactive: 2.28% | – |
| CCCn1c(SCC(=O)Nc2cc(S(=O)(=O)N(C)C)ccc2OC)n[nH]c1=O | inactive: -10.8% [at 46 µM] | – |
| COc1cc(OC)c(NC(=O)CN2C(=O)CCn3nc(-c4cccn4C)cc32)cc1Cl | inactive: -7.7% [at 46 µM] | – |
| CCn1c(N)c(C(=O)NCc2ccco2)sc1=S | inactive: -3.09% | – |
| COc1ccccc1-c1nccc(NC2CCNCC2)n1 | inactive: 8.08% | – |
| COc1cc(NC(=O)CCn2c(-c3ccccc3)cc(C(C)=O)c2C)cc(OC)c1 | inconclusive: 4.1% [at 46 µM] | – |
| Cc1cc(C(=O)COC(=O)C2CC2)c(C)n1-c1ccc(F)cc1 | inconclusive: 15.9% [at 46 µM] | – |
| COc1ccc(NC(=O)CSc2nc3c(c(=O)n2-c2ccccc2OC)SCC3)cc1 | inactive: -14.8% | – |
| CC(C)C(NC(=O)C1CCCCC1)C(=O)Nc1ccc2c(c1)OCCO2 (stereo not drawn) | inconclusive: -0.248% | – |
| CCOC(=O)c1cnc(-c2ccccc2)nc1N(C)C | inconclusive: -3.7% | – |
| COC(=O)c1ccccc1NC(=O)CN1CCC(C(=O)c2ccc3c(c2)OCCO3)CC1 | inconclusive: -21.9% | – |
| O=C(NCc1ccc(F)cc1)c1cc(-c2cccs2)on1 | inconclusive: -0.288% | – |
| Cc1cc(F)ccc1NC(=O)CCS(=O)(=O)c1ccc2c(c1)NC(=O)CO2 | inconclusive: 18.9% [at 46 µM] | – |
| COC(=O)c1ccc(N2CCN(C(C)=O)CC2)c(NC(=O)COc2ccccc2C)c1 | inactive: 2.76% [at 46 µM] | – |
| COc1ccc(/C(O)=C2/C(=O)C(=O)N(CCN3CCOCC3)C2c2ccc(C)cc2)cc1 (stereo not drawn) | inactive: 5.83% | – |
| COC(=O)c1cn(NC(=O)c2ccc([N+](=O)[O-])cc2Cl)c(=O)c2ccccc12 | inconclusive: -21.5% [at 46 µM] | – |
| CN1CCN(c2ccnc(-c3ccoc3)n2)CC1 | inconclusive: -3.54% | – |
| COc1cccc(CNC(=O)C2CCCN(S(=O)(=O)c3ccc4c(ccn4C)c3)C2)c1 (stereo not drawn) | inconclusive: -20% [at 46 µM] | – |

Of the compounds above, 15 have an aryl methoxy group:

| SMILES | ratio change, negative = inhibition | Potency |
| --- | --- | --- |
| COc1ccccc1NC(=O)C1=C(C)Nc2nc3ccccc3n2C1c1cccs1 (stereo not drawn) | – | inconclusive: 3.98 µM [fluorescent, full curve, poor fit] |
| COc1ccc(OCC(O)CN2CCN(Cc3ccc4c(c3)OCO4)CC2)cc1 (stereo not drawn) | inconclusive: 9.74% | – |
| COc1ccc(N2CCN(S(=O)(=O)c3ccc4c(c3)CC(C)N4C(C)=O)CC2)cc1 (stereo not drawn) | inconclusive: 3.99% [at 46 µM] | – |
| COc1ccc(NC(=O)C2Cc3ccccc3N2C(=O)c2ccccc2)c(OC)c1 (stereo not drawn) | inconclusive: 6.45% [at 46 µM] | – |
| CCCNc1nc(NCC)nc(OC)n1 | inactive: 6.21% | – |
| COc1ccc(-c2noc(CCC(=O)NC3CCCCC3)n2)cc1OC | inactive: 7.32% | – |
| CNc1nc(-c2ccccc2OC)nc2ccccc12 | – | inconclusive: 12.6 µM [inhibitor, partial curve, poor fit] |
| COc1cc(C(=O)Nc2cc(C)ccc2OCc2cc(=O)n3c(C)csc3n2)cc(OC)c1OC | inconclusive: -5.93% [at 46 µM] | – |
| CCCn1c(SCC(=O)Nc2cc(S(=O)(=O)N(C)C)ccc2OC)n[nH]c1=O | inactive: -10.8% [at 46 µM] | – |
| COc1cc(OC)c(NC(=O)CN2C(=O)CCn3nc(-c4cccn4C)cc32)cc1Cl | inactive: -7.7% [at 46 µM] | – |
| COc1ccccc1-c1nccc(NC2CCNCC2)n1 | inactive: 8.08% | – |
| COc1cc(NC(=O)CCn2c(-c3ccccc3)cc(C(C)=O)c2C)cc(OC)c1 | inconclusive: 4.1% [at 46 µM] | – |
| COc1ccc(NC(=O)CSc2nc3c(c(=O)n2-c2ccccc2OC)SCC3)cc1 | inactive: -14.8% | – |
| COc1ccc(/C(O)=C2/C(=O)C(=O)N(CCN3CCOCC3)C2c2ccc(C)cc2)cc1 (stereo not drawn) | inactive: 5.83% | – |
| COc1cccc(CNC(=O)C2CCCN(S(=O)(=O)c3ccc4c(ccn4C)c3)C2)c1 (stereo not drawn) | inconclusive: -20% [at 46 µM] | – |

Later entries:

| SMILES | ratio change, negative = inhibition | Potency |
| --- | --- | --- |
| Cn1c(SCC(=O)N/N=C/c2cccs2)nc2ccccc21 | inactive: -3.48% | – |
| COCCOC(=O)C1=C(N)OC2=C(C(=O)CCC2)C1c1cccnc1 (stereo not drawn) | inconclusive: -7.44% | – |
| Nc1ccn([C@@H]2O[C@H](CO)[C@@H](O)C2O)c(=O)n1 (stereo partly drawn) | – | inconclusive: 0.0398 µM [inhibitor, full curve] |
| COc1ccc(N2CCN(C(c3cc4cc(C)ccc4[nH]c3=O)c3nnnn3Cc3ccccc3)CC2)cc1 (stereo not drawn) | inconclusive: 3.17% | – |
| O=C(O)c1ccc2c(c1)C(=O)/C(=C/c1ccccc1)C2=O | inactive: -8.87% | – |
| COC(=O)[C@H]1C[C@@H]1[C@H](NC(=O)OCc1ccccc1)c1ccccc1 | inactive: 1.44% | – |
| CCCNC(=O)c1nn2cc(Br)cnc2c1Cl | inconclusive: 2.59% [at 46 µM] | – |
| N#C/C(=C\c1ccc(-c2cccc([N+](=O)[O-])c2)o1)C(=O)NCCN1CCOCC1 | – | inconclusive: 10 µM [inhibitor, partial curve, poor fit] |
| CCOC(=O)C1CCCN(c2ncnc3c2cnn3-c2ccc(C)c(Cl)c2)C1 (stereo not drawn) | – | inconclusive: 12.6 µM [inhibitor, partial curve] |
| CC1=CC(C)(C)n2c(O)c(N=N)c3cc(C)cc1c32 | inactive: -10.5% | – |
| N#Cc1c(N)nc2c3c(sc(=N)c2c1N)NC(=O)CC3c1ccccc1 (stereo not drawn) | inactive: -14% | – |
| COc1ccccc1C(=O)Nc1nc2ccc(S(=O)(=O)N3CCCC3)cc2s1 | inconclusive: 3.39% [at 46 µM] | – |
| Clc1ccc(COn2ccnc2)cc1Cl | inconclusive: 13.2% [at 46 µM] | – |
| CCOC(=O)C1=C(C)N(c2ccccc2)C(=O)C1 | inactive: -4.18% | – |
| C/C(=N\NC(=S)Nc1c(C)cccc1C)c1ccc(OC(F)F)cc1 | inconclusive: -42.6% | – |
| Cc1ccc(NC(=O)Nc2ccccc2)cc1[N+](=O)[O-] | – | inconclusive: 20 µM [falling, single point] |
| COc1cc2c(cc1OC)CN(CC(=O)NC(=O)NC(C)(C)C)CC2 | inconclusive: 8.5% [at 46 µM] | – |
| CN1CCN(c2ncnc3ccc(-c4cccc(C#N)c4)cc23)CC1 | inconclusive: -34.3% | – |
| CCCOc1ccccc1C(=O)N1CCC(c2nc3ccccc3s2)CC1 | inactive: -10.6% [at 46 µM] | – |
| COc1ccc(N2C(=O)C(Cl)=C(NCc3ccccc3)C2=O)cc1 | inactive: 7.82% | – |
| N#C/C(=C\c1ccc(N2CCOCC2)o1)c1ccccc1 | – | inconclusive: 35.5 µM [cytotoxic, single point] |

Given as comma-separated lines: part of the list above
SMILES,"ratio change, negative = inhibition",Potency
CCOC(=O)C1=C(C)N(c2ccccc2)C(=O)C1,inactive: -4.18%,–
C/C(=N\NC(=S)Nc1c(C)cccc1C)c1ccc(OC(F)F)cc1,inconclusive: -42.6%,–

Further structures

| SMILES | ratio change, negative = inhibition | Potency |
| --- | --- | --- |
| Nc1nc(=S)c2ncn(C3OC(CO)C(O)C3O)c2[nH]1 (stereo not drawn) | inactive: -19.6% [at 46 µM] | – |
| O=C(CCNS(=O)(=O)c1ccc(Cl)cc1)N1CCN(Cc2ccccc2)CC1 | – | inconclusive: 35.5 µM [falling, single point] |
| COc1ccc([N+](=O)[O-])cc1NCc1ccccc1 | inconclusive: 20.3% | – |
| CCOc1ncccc1C(=O)Nc1ccc(Cl)c(S(=O)(=O)N2CCCC2)c1 | inactive: -8.71% [at 46 µM] | – |
| CN(CCO)c1cc(N(C)CCO)c([N+](=O)[O-])cc1[N+](=O)[O-] | inconclusive: 4.38% [at 9.22 µM] | – |
| Cc1ncoc1C(=O)Nc1ncc([N+](=O)[O-])s1 | inconclusive: 15.6% [at 46 µM] | – |
| CCC(C)N1CCNCC1 (stereo not drawn) | inactive: 16.5% [at 46 µM] | – |
| CCCNC(=O)Nc1cc(C(=O)NCc2cccc(OCC)c2)ccc1N1CCCC1 | inactive: 1.02% [at 46 µM] | – |
| CCCn1c(N)c(C(=O)CSc2nnc(Cc3ccccc3)o2)c(=O)n(C)c1=O | – | inconclusive: 12.6 µM [fluorescent, partial curve] |
| COc1ccccc1NC(=O)CSCc1cc(=O)c2c(C)cc(C)cc2[nH]1 | inactive: 3.11% [at 46 µM] | – |
| C/C(=N/NC(=O)CSCc1ccc(Cl)cc1)c1cccc(NC(=O)c2ccccc2)c1 | inactive: 0.555% | – |
| CC(C)(C)NC(=O)C(c1c[nH]c2ccccc12)N(C(=O)Cn1nnc(-c2ccc(Cl)cc2)n1)c1ccccc1F (stereo not drawn) | inconclusive: -32.9% | – |
| CC1(C)Cc2c(ccc3ccccc23)C(=O)N1 | inconclusive: -14.8% | – |
| COc1ccccc1NC(=O)N(Cc1ccco1)Cc1cc2c(C)ccc(C)c2[nH]c1=O | inactive: -17.7% | – |
| CCOC(=O)c1sc(=NC(=O)/C=C/c2cccs2)n(C)c1C | inactive: 2.93% [at 9.22 µM] | – |
| OC(CNCc1ccc(Cl)cc1)(c1ccccc1)c1ccc(F)cc1 (stereo not drawn) | inconclusive: 1.3% [at 9.22 µM] | – |
| CCOc1ccccc1NC(=O)Cn1c(=O)ccc2cc(S(=O)(=O)N3CCC(C)CC3)ccc21 | inconclusive: -17.5% [at 46 µM] | – |
| CN1/C(=C\C=C2/C(=O)Oc3ccccc3C2=O)C(C)(C)c2ccccc21 | inconclusive: -25.4% | – |
| CN(C)c1ccc(/C=N/N=C(N)N)cc1[N+](=O)[O-] | inconclusive: 11.3% [at 46 µM] | – |
| Cc1ccc(-n2nnnc2Sc2ccc(S(=O)(=O)NCCN(C)C)cc2[N+](=O)[O-])cc1 | – | inconclusive: 35.5 µM [cytotoxic, single point] |

From PubChem BioAssay AID1487 (National Center for Advancing Translational Sciences (NCATS), 2009)
